Assay: Singlet oxygen quantum yield, indirect method with DMA as 1O2 probe in DMF
Assay type: physicochemical
Settings: versus parent porphyrin (ATPP, TAPP or compound 6)
Description: The ^1O2 quantum yield (ΦΔ) of the POSSP compounds in dimethyl formamide (DMF) was indirectly determined using 9,10-dimethylanthracene (DMA) as ^1O2 probe. DMA reacts with ^1O2, undergoing a 1,4-cycloaddition that is detected as a decrease in the intensity of the DMA absorption band at 379 nm.
The ^1O2 quantum yields (ΦΔ) were determined through an indirect method using dimethylanthracence (DMA) as the singlet oxygen probe. Several solutions containing DMF were air saturated and prepared with DMA (50 μM) and the POSSPs or parent porphyrins (TPP, ATPP, TAPP and compound 6) (5 μM). These solutions were covered with aluminum foil to avoid any premature quenching. Quartz cuvettes (1 cm × 1 cm) were filled with 1 mL of the solution, placed in a spectrofluorophotometer (xenon lamp, Shimadzu RF-5301 PC) and irradiated at 515 nm for 600 s. The absorbance decay of DMA was monitored at 380 nm, which was corrected from light scattering by subtracting the spectra of POSSPs. The ΦΔ was calculated using Equation (2). Φ∆,S = Φ∆,R (mSample/mRerefence) (1−10^−absReference/1−10^−absSample)(2) where Φ∆,S is the singlet oxygen quantum yield of the sample and m is the slope of the plotted data relative to the area of the emission peak against the absorption of the reference.

SMILES	increase in the ΦΔ value compared with the parent porphyrin [%]
CC(C)C[Si]12O[Si]3(CCCNC(=O)Nc4ccc(-c5c6nc(c(-c7ccccc7)c7ccc([nH]7)c(-c7ccccc7)c7nc(c(-c8ccccc8)c8ccc5[nH]8)C=C7)C=C6)cc4)O[Si]4(CC(C)C)O[Si](CC(C)C)(O1)O[Si]1(CC(C)C)O[Si](CC(C)C)(O2)O[Si](CC(C)C)(O3)O[Si](CC(C)C)(O4)O1 [POSSP 1]	82
O=C(NCCC[Si]12O[Si]3(c4ccccc4)O[Si]4(c5ccccc5)O[Si](c5ccccc5)(O1)O[Si]1(c5ccccc5)O[Si](c5ccccc5)(O2)O[Si](c2ccccc2)(O3)O[Si](c2ccccc2)(O4)O1)Nc1ccc(-c2c3nc(c(-c4ccccc4)c4ccc([nH]4)c(-c4ccccc4)c4nc(c(-c5ccccc5)c5ccc2[nH]5)C=C4)C=C3)cc1 [POSSP 2]	33
NCCC[Si]12O[Si]3(CCCN)O[Si]4(CCCN)O[Si](CCCN)(O1)O[Si]1(CCCN)O[Si](CCCN)(O2)O[Si](CCCN)(O3)O[Si](CCCNC(=O)c2ccc(-c3c5nc(c(-c6ccccc6)c6ccc([nH]6)c(-c6ccccc6)c6nc(c(-c7ccccc7)c7ccc3[nH]7)C=C6)C=C5)cc2)(O4)O1 [POSSP 4]	9

Source: publication PMC7662523, “Evaluation of Polyhedral Oligomeric Silsesquioxane Porphyrin Derivatives on Photodynamic Therapy” (Molecules, 2020)
